# Counter-ions that a name gives are not always drawn. At least one peptide structure holds a part that was inferred or is arguable (an end, a ring closure or a residue).
# Assay: Visual assessment of homogeneity and transparency (SOM dissolution) in lipid formulations
# Assay type: physicochemical
# Conditions: with TRE (SOM/TRE 1:2.5)
smiles,measurement,value
"C[C@H](N)C(=O)NCC(=O)N[C@H]1CSSC[C@@H](C(=O)O)NC(=O)[C@H](CO)NC(=O)[C@H]([C@@H](C)O)NC(=O)[C@H](Cc2ccccc2)NC(=O)[C@H]([C@@H](C)O)NC(=O)[C@H](CCCCN)NC(=O)[C@H](Cc2c[nH]c3ccccc23)NC(=O)[C@H](Cc2ccccc2)NC(=O)[C@H](Cc2ccccc2)NC(=O)[C@H](CC(N)=O)NC(=O)[C@H](CCCCN)NC1=O [SOM, Somatostatin, acetate salt]",SOM (free base) concentrations in the non-aqueous lipid matrix,at least 2 wt%
